# Source: PubChem BioAssay AID504842 (National Center for Advancing Translational Sciences (NCATS), 2011)
# About 100 (0.03%) of roughly 330,000 compounds were called active. The inconclusive results got no clear call from the source; some entries with a clear call stand among them for comparison. The call rests on the fitted dose curve; in most records, active means well fitted inhibition curve with a large enough effect; inconclusive means small, poorly fitted or top-dose-only effect; inactive means flat fitted curve, though single readings scatter. Where the call is inconclusive, the potency comes from a doubtful curve fit.
# System: Chaperonin Mm-Cpn (Methanococcus maripaludis)
# Assay: Inhibitors of TCP-1 ring complex (TRiC) of Methanococcus maripaludis (MmCpn): qHTS; further: nearly all actives have a fitted effect of over 80% in size;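 on potency: enzyme at 25 nM with ATP substrate at 10 µM during the reaction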
# Conditions: purified Mm-Cpn ATPase, ADP Transcreener TR-FRET
# In short: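 Quantitative HTS used 25 nM Mm-CPN and 10 uM ATP in magnesium/KCl Tris buffer, pH 7.4, with 1 mM DTT. Hydrolysis ran 30 min at 37°C; ADP was read by HTRF.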
# Potency means the concentration at half of the fitted maximal effect.
row,Compound,Potency
1,c1ccc(CN2CCC(Nc3ncnc4sccc34)CC2)cc1,"inconclusive: 56.2 µM [inhibitor, single point]"
2,O=C(CSc1nnc(Cc2ccccc2)o1)c1ccc2c(c1)OCO2,"inconclusive: 89.1 µM [inhibitor, partial curve]"
3,O=C(NC1CC(=O)N(c2ccc(Cl)cc2)C1)N1CCN(C(=O)c2ccco2)CC1 (stereo unspecified),inactive
4,Cc1cccc(C)c1OCC(=O)N/N=C/C=C/c1ccco1,"inconclusive: 100 µM [inhibitor, partial curve, poor fit]"
5,Cc1cc(SCC(=O)c2cccs2)n2nc(C)c(-c3ccccc3)c2n1,"inconclusive: 79.4 µM [inhibitor, partial curve, poor fit]"
6,CCOc1ccc2oc(C(=O)Nc3ccc4c(c3)OCO4)c(C)c2c1,"inconclusive: 251 µM [inhibitor, partial curve, poor fit]"
7,Oc1ccc(N=Cc2c(O)ccc3ccccc23)cc1,"inconclusive: 100 µM [inhibitor, single point]"
8,COc1ccc(C(=O)Nc2nccs2)cc1OC,"inconclusive: 11.2 µM [inhibitor, single point]"
9,COc1ccccc1C1=NOC(COc2ccc3c(C)cc(=O)oc3c2)C1 (stereo unspecified),"inconclusive: 8.91 µM [inhibitor, single point]"
10,CCCNC(=O)Cc1c(O)c2ccccc2[nH]c1=O,"inconclusive: 79.4 µM [inhibitor, single point]"
11,CC(=O)NNC(=S)Nc1cccc(F)c1,"inconclusive: 100 µM [inhibitor, single point]"
12,Cc1cc(C(=O)OCC(=O)c2ccc(Br)s2)no1,"inconclusive: 100 µM [inhibitor, partial curve, poor fit]"
13,CC(=O)Nc1ccc(S(=O)(=O)NCc2ccc3c(c2)cc(C)n3C)cc1,"inconclusive: 100 µM [inhibitor, partial curve, poor fit]"
14,Cc1cc(C)cc(C(=O)OCC(=O)N2CCCC2)c1,"inconclusive: 89.1 µM [inhibitor, single point]"
15,COc1ccccc1C1(O)CC2CCC(C1)N2S(=O)(=O)c1ccc(C(C)=O)cc1 (stereo unspecified),"inconclusive: 100 µM [inhibitor, single point]"
16,O=C1CC(O)(C(F)F)Oc2ccc3ccccc3c21 (stereo unspecified),inactive
17,COc1ccc(-n2c3c(cc(C(=O)Nc4cccc(C)n4)c2=O)C(=O)CC(C)(C)C3)cc1,"inconclusive: 79.4 µM [inhibitor, single point]"
18,C[C@@]12C(=O)Nc3ccc(Cl)cc3C(=O)N1[C@H]1c3cc(Br)ccc3OC[C@@H]1[C@@H]2c1ccccc1,"inconclusive: 56.2 µM [inhibitor, partial curve, poor fit]"
19,O=C(O)CCNc1cc(N2CCN(C(=O)c3ccco3)CC2)c2noc3c2c1C(=O)c1ccccc1-3,"inconclusive: 100 µM [inhibitor, partial curve, poor fit]"
20,Cn1c(SCC(=O)Nc2ccc(NC(=O)c3ccccc3F)cc2)nnc1-c1ccncc1,inactive
21,CCCCCOc1ccc(C2C(C(=O)c3ccc(C)o3)=C(O)C(=O)N2c2cc(C)on2)cc1 (stereo unspecified),inactive
22,CCOc1ccccc1NC(=O)N1C2CCCC1CC(NC(=O)C1CC1)C2 (stereo unspecified),"inconclusive: 39.8 µM [inhibitor, single point]"
23,O=C1/C(=C/c2ccncc2)SC(=S)N1Nc1ccccc1,inactive
24,Cc1cc(C)n(-c2ccc(C(=O)Nc3nnc(C)s3)cc2)n1,inactive

row,Compound,Potency
1,COc1cccc(-n2cnc3c(sc4nc(N5CCOCC5)c5c(c43)CCCC5)c2=O)c1,"inconclusive: 79.4 µM [inhibitor, single point]"
2,CCn1c(N2CCC(Cc3ccccc3)CC2)nc2c1c(=O)[nH]c(=O)n2C,"inconclusive: 316 µM [inhibitor, partial curve, poor fit]"
3,O=C(CSc1ccc(-c2nc3ccccc3[nH]2)cn1)Nc1ccc(S(=O)(=O)N2CCCC2)cc1,"inconclusive: 100 µM [inhibitor, single point]"
4,Cc1ccccc1NC(=O)Cn1c(=O)n(-c2ccc(CC(=O)NCC3CCCO3)cc2)c(=O)c2ccccc21 (stereo unspecified),"inconclusive: 50.1 µM [inhibitor, single point]"
5,COc1ccc(C(=O)CCN2CCCCCC2)cc1,"inconclusive: 15.8 µM [inhibitor, single point]"
6,CC1=C(C(=O)Nc2ccc(C)cn2)C(c2cnn(C)c2)C2=C(CCCC2=O)N1 (stereo unspecified),inactive
7,Cc1ccc(NC(=O)Nn2cnnc2)c(C)c1,inactive
8,COCCn1c(=NC(=O)c2cc(-c3cccs3)nc3ccccc23)sc2cc(S(N)(=O)=O)ccc21,"inconclusive: 56.2 µM [inhibitor, partial curve, poor fit]"
9,Cc1cc(Oc2cc(N)cc([N+](=O)[O-])c2)ccc1Cl,"inconclusive: 22.4 µM [inhibitor, single point]"
10,O=[N+]([O-])c1ccc(Cl)cc1N/N=C/c1ccncc1,inactive
11,CNC(=O)c1cc2c(s1)CCCCCC2,inactive
12,CC/C(C)=N\N=C\c1c(O)n(CC)c2cc(C3=NNC(=O)CC3)ccc12,inactive
13,COc1ccccc1C1SCCN1S(C)(=O)=O (stereo unspecified),inactive
14,O=C1[C@@H]2[C@H](C(=O)N1Cc1ccco1)[C@H]1C=C[C@@H]2C1,"inconclusive: 11.2 µM [inhibitor, single point]"
15,Cc1nc(S(=O)(=O)c2cccc(Cl)c2)nc2c1CCC2,inactive
16,O=C(c1cccs1)N(Cc1ccc(F)cc1)C1CCS(=O)(=O)C1 (stereo unspecified),"inconclusive: 25.1 µM [inhibitor, single point]"
17,Cc1cccc(-c2nc(C#N)c(N3CCCCC3)o2)c1,inactive
18,S=C(NC1CCCCC1)NN(c1ccccc1)c1ccccc1,inactive
19,COc1ccc(CCN(C(=O)c2ccc(F)cc2)C2=CC3CCC(C2)N3C)cc1OC (stereo unspecified),"inconclusive: 14.1 µM [inhibitor, single point]"
20,CCCCC(CC(O)COCC(C)C)C(=O)NNC(=S)Nc1ccccc1 (stereo unspecified),inactive
21,COc1ccc(NC(=O)CSc2nc(O)cc(=O)n2-c2ccc(OC)cc2)cc1,"inconclusive: 282 µM [inhibitor, partial curve, poor fit]"
22,FC(F)(F)c1cccc(CNC(=S)Nc2ccccc2)c1,inactive
23,Cc1ccccc1NC(=O)CSc1nc(N)c(C#N)c(-c2cccs2)c1C#N,"inconclusive: 100 µM [inhibitor, single point]"
24,COc1ccc2oc(C(=O)OCC(=O)Nc3cc(S(=O)(=O)N4CCOCC4)ccc3OC)c(C)c2c1,inactive

row,Compound,Potency
1,S=c1[nH]nc(-c2ccc(Br)cc2)n1Cc1ccccc1,"inconclusive: 22.4 µM [inhibitor, single point]"
2,CCOC(=O)CSc1nc(N)c(C#N)c(-c2cccs2)c1C#N,"inconclusive: 56.2 µM [inhibitor, single point]"
3,O=C(NCc1cccc(Cl)c1)c1ccc2nc[nH]c2c1,inactive
4,CCCn1c(N)c(C(=O)COc2ccc(Br)cc2F)c(=O)n(C)c1=O,"inconclusive: 56.2 µM [inhibitor, single point]"
5,COCCNCCOc1ccccc1-c1ccccc1,inactive
6,Nc1cc2sc(-c3ccc(C(=O)O)cc3)nc2cc1Cl,"inconclusive: 178 µM [inhibitor, partial curve, poor fit]"
7,COc1ccc(Cc2nnc(SCC(=O)c3ccc4c(c3)OCO4)o2)cc1,"inconclusive: 89.1 µM [inhibitor, single point]"
8,CCOC(=O)c1c(C)nc2sc3c(=O)[nH]cnc3c2c1-c1ccc(OC)cc1,"inconclusive: 100 µM [inhibitor, single point]"
9,Nc1nc(Br)c2ccccc2c1-c1ccccc1,inactive
10,S=c1[nH]c2ccc(Cl)cc2[nH]1,inactive
11,CCOc1ccccc1C(=O)Nc1cc2c(cc1N1CCCC1)n(CC)c(=O)n2CC,"inconclusive: 70.8 µM [inhibitor, single point]"
12,Cn1cncc1C#Cc1c(C=O)n(C)c2ccccc12,"inconclusive: 100 µM [inhibitor, single point]"
13,O=c1oc2cc(O)ccc2c2ccccc12,inactive
14,CCn1c(SCC(=O)O)nc2sc3c(c2c1=O)CCC3,"inconclusive: 100 µM [inhibitor, single point]"
15,CC1CCC(C(C)C)C2=C1C(C#N)(C#N)C(C#N)(C#N)C(c1ccccc1)N2 (stereo unspecified),"inconclusive: 70.8 µM [inhibitor, single point]"
16,CC(Nc1cc(C)cc(C)c1)=[N+](C)CCNS(=O)(=O)c1ccc(Cl)cc1,inactive
17,Cc1ccc(NS(=O)(=O)c2cccc(C(=O)O)c2)cc1S(=O)(=O)N1CCCCC1,"inconclusive: 79.4 µM [inhibitor, single point]"
18,COc1cccc(NC(=O)Cn2c3ccc(F)cc3c3nc4n(c(=O)c32)CCCS4)c1,"inconclusive: 89.1 µM [inhibitor, single point]"
19,COc1ccc(CCNC(=O)C(=O)NCC2OCCCN2S(=O)(=O)c2cc(C)ccc2C)cc1 (stereo unspecified),"inconclusive: 100 µM [inhibitor, single point]"
20,CCn1c2ccccc2c2nc3cc(S(=O)(=O)N4CCOCC4)ccc3nc21,inactive
21,COc1ccc(NC(=O)CCNC(=O)Cn2ccc3ccccc3c2=O)cc1Cl,"inconclusive: 50.1 µM [inhibitor, single point]"
22,COC(=O)CC/C(O)=C1\C(=O)CC(C)(C)CC1=NCCc1nc2ccccc2[nH]1,inactive
23,COc1ccc(Cl)cc1-c1nc(N)nc(NC2CCCCC2)n1,"inconclusive: 25.1 µM [inhibitor, single point]"

# An excerpt of these results, bar-delimited.
row | Compound | Potency
6 | Nc1cc2sc(-c3ccc(C(=O)O)cc3)nc2cc1Cl | inconclusive: 178 µM [inhibitor, partial curve, poor fit]
9 | Nc1nc(Br)c2ccccc2c1-c1ccccc1 | inactive
13 | O=c1oc2cc(O)ccc2c2ccccc12 | inactive
16 | CC(Nc1cc(C)cc(C)c1)=[N+](C)CCNS(=O)(=O)c1ccc(Cl)cc1 | inactive
